“And” between values parts separate entries of the source, which are not always exact repeats. Equal entries are not always repeated. The whole screen tested about 580,000 compounds, of which about 6,100 (1.1%) were called active. Inconclusive results, whose numbers are uncertain, are shown with a selection of clear calls. Calls follow the shape of the dose curve; as a rule, active = well fitted inhibition curve with a large enough effect; inconclusive = small, poorly fitted or top-dose-only effect, or another doubt; inactive = no such curve, though single readings can be large or run the other way. Where the call is inconclusive, the potency comes from a doubtful curve fit.
biological target: Polyunsaturated fatty acid lipoxygenase ALOX12 (Homo sapiens) (UniProt P18054); test: Primary qHTS assay for inhibitors of human arachidonate 12S-lipoxygenase (ALOX12): Round 2; conditions: purified 12hLO, xylenol orange hydroperoxide absorbance; activity change, negative = inhibition: at 108 µM (top of the series) unless noted
How it was run: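 Purified human 12hLO at 150 nM in 25 mM Hepes, 0.01% Triton X-100, pH 7.0, preincubated 15 min at room temperature with compound. Reaction started with 40 uM arachidonic acid, 30 min at room temperature. Hydroperoxide measured by Fe-xylenol orange, 573/405 nm absorbance ratio.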
% is scaled to controls: 0 for no effect and ±100 for the full control effect; potency is read from the fitted curve at half-maximal effect.

Sequences of proteins named here, by UniProt entry; tags and fusion partners are left off.
UniProt P18054, whole entry, looked up: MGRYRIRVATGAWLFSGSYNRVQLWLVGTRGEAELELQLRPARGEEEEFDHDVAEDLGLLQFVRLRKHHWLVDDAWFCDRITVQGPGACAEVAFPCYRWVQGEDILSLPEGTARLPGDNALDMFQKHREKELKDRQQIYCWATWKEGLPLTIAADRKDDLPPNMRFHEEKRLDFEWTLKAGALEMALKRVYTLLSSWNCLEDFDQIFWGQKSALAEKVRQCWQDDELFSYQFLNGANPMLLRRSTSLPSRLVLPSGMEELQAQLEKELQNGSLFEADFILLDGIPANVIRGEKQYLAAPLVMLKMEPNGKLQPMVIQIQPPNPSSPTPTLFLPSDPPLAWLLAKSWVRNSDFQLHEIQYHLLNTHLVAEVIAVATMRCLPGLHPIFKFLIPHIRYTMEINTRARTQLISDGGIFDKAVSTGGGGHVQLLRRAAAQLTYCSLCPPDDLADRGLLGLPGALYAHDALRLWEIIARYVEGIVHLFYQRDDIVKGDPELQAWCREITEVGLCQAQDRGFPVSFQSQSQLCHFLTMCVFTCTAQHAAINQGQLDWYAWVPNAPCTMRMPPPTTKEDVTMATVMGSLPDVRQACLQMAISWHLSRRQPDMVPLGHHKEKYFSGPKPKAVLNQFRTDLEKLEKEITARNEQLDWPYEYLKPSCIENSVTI

| Structure (SMILES) | Potency | activity change, negative = inhibition |
| --- | --- | --- |
| O=C(COC(=O)COc1ccc(Cl)cc1)NC1CCCC1 | inconclusive: 112 µM [inhibitor, single point] |  |
| COc1cc(/C=C(/C#N)c2ccc(C(F)(F)F)cn2)cc(OC)c1O | inconclusive: 0.355 µM [inhibitor, full curve, poor fit] |  |
| Cc1ccc(OCCn2c(CN(C)C(=O)c3ccco3)nc3ccccc32)cc1C |  | inactive: 10.4% |
| COc1ccccc1C(c1nnnn1Cc1ccccc1)N1CCC(C(N)=O)CC1 (stereo not drawn) | inconclusive: 56.2 µM [inhibitor, partial curve, poor fit] |  |
| O=[N+]([O-])c1ccc(Nc2cccc(F)c2)nc1 | inconclusive: 50.1 µM [inhibitor, partial curve, poor fit] |  |
| CS(=O)c1nc(-c2ccc(Br)cc2)cc(-c2ccccc2)c1C#N (stereo not drawn) |  | inactive: -12.6% |
| O=C(Nc1ccccc1F)C(=O)Nc1cccc2ccccc12 |  | inactive: 2.7% |
| CCN1C(=O)N/C(=C/c2cn(CC(=O)Nc3ccc(C)cc3)c3ccccc23)C1=O | inconclusive: 100 µM [inhibitor, single point] |  |
| COc1ccc(C2C(C(=O)N3CCN(C)CC3)c3ccccc3C(=O)N2C2CCCCC2)cc1 (stereo not drawn) |  | inactive: 0% [at 57.4 µM] |
| COc1ccccc1CC(=O)N1CCCc2ncc(C(=O)Nc3ccccn3)cc21 |  | inactive: -2.75% [at 176 µM] |
| Cc1ccc(CN2CCc3oc(C)c(C(=O)NC4CCCC4)c3C2)cc1 | active: 25.1 µM |  |
| CC(OC(=O)CC1Sc2ccccc2NC1=O)C(=O)N(C)Cc1ccccc1 (stereo not drawn) | inconclusive: 70.8 µM [inhibitor, partial curve, poor fit] |  |
| CCC(=O)N1c2ccccc2NC2=C(C(=O)CCC2)C1c1ccc(N(C)C)cc1 (stereo not drawn) | inconclusive: 1.58 µM [inhibitor, full curve, poor fit] |  |
| Cc1ccc(S(=O)(=O)N2CCN(C(=O)Cc3sc(C)nc3-c3ccc(F)cc3)CC2)c(C)c1 | inconclusive: 126 µM [inhibitor, partial curve, poor fit] |  |
| O=C(OC(c1ccccc1)c1ccccn1)c1cnc2ccccc2n1 (stereo not drawn) | inconclusive: 39.8 µM [inhibitor, partial curve, poor fit] |  |
| C=CCNc1nc(Nc2ccc([N+](=O)[O-])cc2)nc(N2CCCC2)n1 | inconclusive: 44.7 µM [inhibitor, partial curve, poor fit] |  |
| O=C1CSc2ccc(C(=O)Nc3cccc(S(=O)(=O)Nc4ccc(Br)cc4)c3)cc2N1 | inconclusive: 39.8 µM [inhibitor, partial curve, poor fit] |  |
| CC1(C(=O)NS(=O)(=O)c2ccc(Br)cc2)CCN1C(=O)CCc1cccs1 (stereo not drawn) | inconclusive: 50.1 µM [inhibitor, partial curve, poor fit] |  |
| O=C(c1ccc(F)cc1)N1CCn2c(nnc2C2CC2)C1 |  | inactive: 36.7% [at 176 µM] |
| Cc1nc(N)sc1-c1ccccc1 | inconclusive: 44.7 µM [inhibitor, partial curve, poor fit] |  |
| COc1ccccc1N1CCN(C(=O)CC(NC(=O)c2ccccc2Cl)c2ccccc2)CC1 (stereo not drawn) | inconclusive: 79.4 µM [inhibitor, partial curve, poor fit] |  |

| Structure (SMILES) | Potency | activity change, negative = inhibition |
| --- | --- | --- |
| CCOc1cc(C(c2c(C)[nH]n(-c3ccccc3)c2=O)c2c(C)[nH]n(-c3ccccc3)c2=O)ccc1O |  | inactive: 0% |
| O=C(Nc1ccc(Cl)cc1)C1c2cccc[n+]2CC(=O)N1Cc1ccc2c(c1)OCO2 (stereo not drawn) | inconclusive: 44.7 µM [inhibitor, partial curve, poor fit] |  |
| Cc1oc(-c2cccs2)[n+]([O-])c1C | inconclusive: 39.8 µM [inhibitor, partial curve, poor fit] |  |
| O=[S+]1([O-])NC2(CCN(Cc3ccncc3)CC2)COc2ccccc21 |  | inactive: -8.84% [at 6.33 µM] |
| CN1CCN(c2nc3c(s2)CN(C(=O)CCC2CCCC2)CC3)CC1 | inconclusive: 56.2 µM [inhibitor, partial curve, poor fit] |  |
| CC(C)c1nc2sc3ccccc3c(=O)c2c(=O)n1Cc1ccccc1 |  | inactive: 22.1% |
| COC(=O)C1CCN(C(c2cc(OC)c(OC)c(OC)c2)c2sc3nc(C)nn3c2O)CC1 (stereo not drawn) |  | inactive: 9.54% |
| Cc1ncc(C(=O)N2CCOCC2CC(=O)N2CCCC2)c(-c2ccccc2)n1 (stereo not drawn) |  | inactive: 29.9% |
| CCOC(=O)c1[nH]c(C)c(C(=O)Nc2ccc(Br)c(C)c2)c1C | inconclusive: 39.8 µM [inhibitor, partial curve, poor fit] |  |
| CN(Cc1ccco1)C(=O)c1cc(-c2cccs2)nc2ccccc12 | inconclusive: 79.4 µM [inhibitor, single point] |  |
| Cn1c(C(=O)N[C@@H](C(=O)O)c2ccccc2)cc2cc(Cl)ccc21 | inconclusive: 31.6 µM [inhibitor, partial curve, poor fit] |  |
| O=c1c(-c2cccs2)nc2ccccc2n1C(c1ccccn1)c1nc2ccccc2[nH]1 (stereo not drawn) | active: 39.8 µM |  |
| CC(Oc1ccccc1)C(=O)Nc1ccc(C(=O)OCc2cc(=O)n3nc(C(C)C)sc3n2)cc1 (stereo not drawn) | inconclusive: 100 µM [inhibitor, partial curve, poor fit] |  |
| O=C(CSc1nc(O)cc(=O)n1-c1ccccc1)c1ccc(Br)cc1 | inconclusive: 50.1 µM [inhibitor, partial curve, poor fit] |  |
| CCOC(=O)c1ccc(NC(=O)COC(=O)c2ccc3ccccc3n2)cc1 | inconclusive: 100 µM [inhibitor, single point] |  |
| C[C@@H]1CCCCO[C@H](CN(C)Cc2ccccc2)[C@@H](C)CN([C@H](C)CO)C(=O)c2cc(NC(=O)c3ccccc3)ccc2O1 | inconclusive: 79.4 µM [inhibitor, single point] |  |
| O=C(Cn1c(=O)n(Cc2ccco2)c(=O)c2c3c(sc21)CCCCC3)c1ccccc1 | inconclusive: 5.62 µM [inhibitor, full curve, poor fit] |  |
| CC(C)(C)C(=O)N1CCCN(Cc2ccc3c(c2)OCO3)c2ccccc21 |  | inactive: -25.4% |
| CCOc1ccc(/C=C/c2nc(C#N)c(N3CCN(CC)CC3)o2)cc1 | inconclusive: 15.8 µM [inhibitor, full curve, poor fit] and inconclusive: 35.5 µM [inhibitor, single point] |  |
| CC1(C)C2=CCCC(C)(C)[C@]23CC[C@H]1C3 | inconclusive: 56.2 µM [inhibitor, single point] |  |
| CCOC(=O)Cn1nnnc1CN(Cc1ccc(OC)cc1)Cc1cc2cc(C)ccc2[nH]c1=O | inconclusive: 63.1 µM [inhibitor, partial curve, poor fit] |  |

| Structure (SMILES) | Potency | activity change, negative = inhibition |
| --- | --- | --- |
| O=C(NC1CCCN(Cc2ccc(Cl)cc2)C1)C1CCC1 (stereo not drawn) |  | inactive: 17.7% |
| O=C1OC(/C=C/c2ccc(Cl)cc2)=NC/1=C/c1ccco1 | active: 39.8 µM |  |
| CCOc1cc(C(=O)N2CCCN(c3cc(-c4ccc(F)cc4)[nH]n3)CC2)cc(OCC)c1OCC |  | inactive: 22.7% |
| CC(=O)c1cccc(OCc2cc(C(=O)N(C)Cc3ccc(C)o3)no2)c1 | inconclusive: 31.6 µM [inhibitor, single point] |  |
| O=C(O)Cn1c(=O)c2c(ncn2Cc2ccccc2)n(Cc2ccccc2)c1=O |  | inactive: -2.12% |
| N#Cc1c(-c2ccccc2)nc(SCC(=O)Nc2nnc(C(F)(F)F)s2)[nH]c1=O | inconclusive: 35.5 µM [inhibitor, partial curve, poor fit] |  |
| CCC(c1ccccc1)C(CC)c1cc(O)c(O)c(O)c1 (stereo not drawn) | inconclusive: 12.6 µM [inhibitor, partial curve, poor fit] |  |
| COc1cccc(/C=N/NC(=S)Nc2cccc(C(=O)O)c2)c1O | inconclusive: 39.8 µM [inhibitor, partial curve] |  |
| CC1CC(C)CN(S(=O)(=O)c2ccc(NC(=S)NC(=O)c3ccccc3)cc2)C1 (stereo not drawn) | inconclusive: 39.8 µM [inhibitor, partial curve] |  |
| COc1ccccc1NC(=O)CSc1nc2n[nH]c(C)c2c(=N)n1-c1ccccc1Cl |  | inactive: 14.2% |
| Cc1ccc(C(=O)Nc2nc(C34CC5CC(CC(C5)C3)C4)cs2)cc1 | inconclusive: 141 µM [inhibitor, single point] |  |
| CCCC(=O)Nc1ccc2oc(-c3cccc(Cl)c3)nc2c1 | inconclusive: 141 µM [inhibitor, partial curve, poor fit] |  |
| Cc1oc(-c2ccccc2)nc1CC(=O)NCC1(N2CCOCC2)CCCCC1 | inconclusive: 100 µM [inhibitor, single point] |  |
| COc1ccc(NC(=O)c2c(NCc3ccc(C)o3)sc3c2CCCCC3)c(OC)c1 | inconclusive: 126 µM [inhibitor, single point] |  |
| CC1CCC(NC(=O)CN2C(=O)C(C)(C)c3cc(S(=O)(=O)N4CCC(C)CC4)ccc32)CC1 (stereo not drawn) |  | inactive: -52.1% |
| CC(C)(C)c1ccc(NC(=O)CN2CCC(N3CCCC3)C2)cc1 (stereo not drawn) | inconclusive: 50.1 µM [inhibitor, partial curve, poor fit] |  |
| O=C(COC(=O)c1ccc2ccccc2n1)Nc1cc(F)ccc1F | inconclusive: 35.5 µM [inhibitor, partial curve, poor fit] |  |
| COc1ccc(N(C(=O)c2ccco2)C(C(=O)NC2CCCCC2)c2cccs2)cc1OC (stereo not drawn) | inconclusive: 2.82 µM [inhibitor, full curve, poor fit] |  |
| CCC(Oc1cccc(Cl)c1)C(=O)O (stereo not drawn) | inconclusive: 50.1 µM [inhibitor, partial curve, poor fit] |  |
| CCOC(=O)C1CCCN(C2CC(=O)N(c3cccc(C(F)(F)F)c3)C2=O)C1 (stereo not drawn) | inconclusive: 0.1 µM [inhibitor, full curve, poor fit] |  |
| CCOC(=O)c1cnc2ccc(OC)cc2c1Nc1cccc(C(=O)O)c1 | inconclusive: 0.501 µM [inhibitor, partial curve, poor fit] |  |

Quoted from the results shown for reference:

| Structure (SMILES) | Potency | activity change, negative = inhibition |
| --- | --- | --- |
| Cc1ccc(C(=O)Nc2nc(C34CC5CC(CC(C5)C3)C4)cs2)cc1 | inconclusive: 141 µM [inhibitor, single point] |  |
| CCCC(=O)Nc1ccc2oc(-c3cccc(Cl)c3)nc2c1 | inconclusive: 141 µM [inhibitor, partial curve, poor fit] |  |
| Cc1oc(-c2ccccc2)nc1CC(=O)NCC1(N2CCOCC2)CCCCC1 | inconclusive: 100 µM [inhibitor, single point] |  |
| COc1ccc(NC(=O)c2c(NCc3ccc(C)o3)sc3c2CCCCC3)c(OC)c1 | inconclusive: 126 µM [inhibitor, single point] |  |
| CC1CCC(NC(=O)CN2C(=O)C(C)(C)c3cc(S(=O)(=O)N4CCC(C)CC4)ccc32)CC1 (stereo not drawn) |  | inactive: -52.1% |

Reference: PubChem BioAssay AID1671190 (National Center for Advancing Translational Sciences (NCATS), 2021)
